Measurements: publication PMC8909324
Read-outs that look alike come from different tables or passages of the source. No constants are given. Whether binding was seen depends on the method and setting. In cells and extracts the contact can be indirect. Some entries that bind do so weakly or less than the wild type.

Sequences of proteins named here, by UniProt entry; tags and fusion partners are left off. Residues count along the entry.
UniProt P08069, residues 31-1367: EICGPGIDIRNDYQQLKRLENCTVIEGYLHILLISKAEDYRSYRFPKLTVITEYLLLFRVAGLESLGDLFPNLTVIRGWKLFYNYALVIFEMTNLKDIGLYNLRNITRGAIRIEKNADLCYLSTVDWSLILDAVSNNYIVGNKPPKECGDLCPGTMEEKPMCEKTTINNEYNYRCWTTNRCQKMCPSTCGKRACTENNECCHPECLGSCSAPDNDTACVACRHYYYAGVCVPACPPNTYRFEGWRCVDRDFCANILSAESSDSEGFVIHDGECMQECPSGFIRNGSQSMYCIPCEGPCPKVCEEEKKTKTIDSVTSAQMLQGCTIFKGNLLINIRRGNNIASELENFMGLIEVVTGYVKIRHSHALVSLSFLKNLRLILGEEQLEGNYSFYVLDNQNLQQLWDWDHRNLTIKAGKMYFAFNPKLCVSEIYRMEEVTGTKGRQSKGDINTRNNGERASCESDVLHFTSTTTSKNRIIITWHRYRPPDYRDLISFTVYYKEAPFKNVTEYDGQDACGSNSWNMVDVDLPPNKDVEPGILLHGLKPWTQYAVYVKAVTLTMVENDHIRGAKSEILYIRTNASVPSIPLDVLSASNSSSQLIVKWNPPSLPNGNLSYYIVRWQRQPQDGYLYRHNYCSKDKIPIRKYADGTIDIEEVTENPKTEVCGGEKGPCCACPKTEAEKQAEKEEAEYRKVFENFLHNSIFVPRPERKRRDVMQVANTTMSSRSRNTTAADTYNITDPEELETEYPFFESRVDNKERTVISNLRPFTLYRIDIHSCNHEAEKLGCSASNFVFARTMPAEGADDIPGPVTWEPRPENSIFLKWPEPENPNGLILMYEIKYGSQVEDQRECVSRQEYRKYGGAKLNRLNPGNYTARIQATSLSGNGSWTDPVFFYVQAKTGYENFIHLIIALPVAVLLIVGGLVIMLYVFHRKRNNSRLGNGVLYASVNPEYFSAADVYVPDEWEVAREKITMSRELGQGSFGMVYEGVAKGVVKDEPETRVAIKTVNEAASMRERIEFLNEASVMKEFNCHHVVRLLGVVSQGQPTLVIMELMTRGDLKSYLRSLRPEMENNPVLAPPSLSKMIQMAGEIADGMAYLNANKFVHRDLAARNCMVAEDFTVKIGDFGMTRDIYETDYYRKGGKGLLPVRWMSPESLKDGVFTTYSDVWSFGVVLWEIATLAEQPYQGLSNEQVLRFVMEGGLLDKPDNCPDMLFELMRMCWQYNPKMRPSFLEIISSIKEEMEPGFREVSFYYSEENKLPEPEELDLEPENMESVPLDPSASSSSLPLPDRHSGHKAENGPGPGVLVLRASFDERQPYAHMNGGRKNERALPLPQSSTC
UniProt P63165, residues 1-97: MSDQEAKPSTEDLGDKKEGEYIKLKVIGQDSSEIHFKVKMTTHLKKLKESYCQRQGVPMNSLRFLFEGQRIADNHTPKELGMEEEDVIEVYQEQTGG

How the values were obtained:
[1] = biological target: Type I insulin-like growth factor receptor (human (endogenous in MG63)) (UniProt P08069); assay: co-IP; MG63 cell extracts in RIPA buffer; anti-IGF-IR antibody overnight at 4 °C, then protein A/G agarose for 4 h at 4 °C; Western blot of the precipitate; cells kept in serum-free medium or treated with biglycan (10 μg/mL) for 48 h; for SUMO-1 also DMSO or AG1024 (10 μM)
[2] = biological target: Type I insulin-like growth factor receptor (human (endogenous in MG63)) (UniProt P08069); assay: as above; remark: listed apart in the source

| Molecule | binding [1] | binding [2] |
| --- | --- | --- |
| Small ubiquitin-like modifier-1 (from UniProt P63165 1-97) | binds | – |
| Biglycan (protein, UniProt P21810 38-368) DEEASGADTSGVLDPDSVTPTYSAMCPFGCHCHLRVVQCSDLGLKSVPKEISPDTTLLDLQNNDISELRKDDFKGLQHLYALVLVNNKISKIHEKAFSPLRKLQKLYISKNHLVEIPPNLPSSLVELRIHDNRIRKVPKGVFSGLRNMNCIEMGGNPLENSGFEPGAFDGLKLNYLRISEAKLTGIPKDLPETLNELHLDHNKIQAIELEDLLRYSKLYRLGLGHNQIRMIENGSLSFLPTLRELHLDNNKLARVPSGLPDLKLLQVVYLHSNNITKVGVNDFCPMGFGVKRAYYNGISLFNNPVPYWEVQPATFRCVTDRLAIQFGNYKK | – | binds |
